From patent US10905757B2, “Cross-reactive T cell epitopes of HIV, SIV, and FIV for vaccines in humans and cats” (priority 2012, dated 2021)
Not every detail of the peptide structures is certain; ends, links or a residue may be inferred. Marks after values point to notes of the source that are not given here. Some entries share one result that the patent states for a list of compounds. Ends that are not written are not given here.

Assays:
[1] = system: CD3+CD8+ T cells from HIV+ subjects; assay: CFSE-proliferation, CD3+CD8+ T cells from HIV+ subjects; format: cell-based, human; set-up: key to CD8^+ T-cell proliferation (8P): positive (+); negative (−) response; inhibitory (↓); not done (n); conditions: for CD8^+ T-cell Responder Frequency: responders/tested; for CD8^+ T-cell Responder Frequency / CD8^+ T-cell Responder Frequency (%): small 9-13mer peptides, yr 4, responders to Fp9 or Fp14 pool via both proliferation and IFNγ
Experimental: (§1) 2×10^5-5×10^5 CFSE labeled PBMCs were incubated with 15-20 μg of peptides in 600 μL of RPMI media with 10% FBS for 5 days at 37° C. (5% CO2). After harvesting, they were labeled with allophycocyanin (APC), APC-H7, and Pacific Blue labeled monoclonal antibodies (MAb) to human CD3, CD4, and CD8, respectively and analyzed for T-cell proliferation by flow cytometry using BD LSRII (BD Biosciences). The proliferating CD4^+ or CD8^+ T cell populations were defined from the CD3^+ cell population as either CD3^+CD8^+ or CD3^+CD4^+T cells (mutually exclusive) with low CFSE (CFSE^low) staining.
(§2) Flow cytometry (FACS) for carboxyfluoresein diacetate succinimide ester (CFSE)-proliferation and intracellular cytotoxin staining (ICS). The CFSE-proliferation analysis was performed on PBMC according to the manufacturer's protocol (Invitrogen, Carlsbad, Calif.) and processed as previously described (Lichterfeld et al. (2004)). Modifications consisted of using 2.0-5.0×10^5 CFSE-labeled cells stimulated for 5 days (37° C., 5% CO^2) with 30 μg/well of total peptides in a pool (15 μg/well for individual peptide, Table 10) or 5 μg/mL PHA in AIM V medium containing 25 μg/mL of gentamycin and 10% heat-inactivated human serum. Subsequently these cells were harvested and labeled with the LIVE/DEAD fixable yellow dye (Invitrogen) and then treated 5 min with anti-CD16/CD32 antibody (Biolegend, San Diego, Calif.) for blocking non-specific binding before phenotype-specific antibodies. The following antibodies were used for the CFSE-proliferation analysis: anti-CD4 APC, anti-CD3 APC-H7, and anti-CD8 Pacific Blue (BD Biosciences, San Jose, Calif.).
(§3) In both analyses, 1.0-2.0×10^4 cells were fixed in phosphate-buffered saline (PBS) containing 2% paraformaldehyde and analyzed on BD LSRII using […] Software (BD Biosciences), with a positive threshold of 3% CFSE^low for CFSE-proliferation and 1% T cells expressing cytotoxin for ICS. The final value for each subject was derived after subtraction of the subject's medium control and the average value of peptide-stimulated cells from uninfected control subjects.
(§4) Flow cytometry (FACS) for measuring CFSE-proliferation and intracellular cytokine staining (ICS). Carboxyfluorescein diacetate succinimide ester (CFSE)-proliferation analysis was performed according to the manufacturer's protocol (Invitrogen) and processed as previously described (Lichterfeld et al. 2004) using the following modification: 2.5-5.0×10^5 CFSE-labeled PBMC stimulated for 4-5 days (37° C., 5% CO2) with 15-30 μg of peptides in culture media (AIM V medium, 25 μg/mL gentamycin, and 10% heat-inactivated fetal bovine serum). The ICS analysis was performed as previously described (Horton et al. 2007; Pattacini et al. 2012).
(§5) The antibodies used for the proliferation analysis consisted of anti-CD4 allophycocyanin (APC) anti-CD3 APC-H7, and anti-CD8 Pacific Blue, and those for ICS were anti-CD3 APC-H7, anti-CD4 BD Horizon V450, anti-CD8 FITC, anti-granzyme B (GrzB) Alexa 700, anti-granzyme A (GrzA) PE (BD Biosciences, Cat #555349, 560176, 558207, 560345, 555366, 560213, 558904), and anti-perforin PerCP (Abcam, Cat #ab86319). Both analyses were performed with BD LSRII and […]™ Software (BD Biosciences), using a positive threshold of >1% CFSE^low for CFSE-proliferation except for ICS studies with threshold of >0.1% T cells expressing cytotoxin. The final value for each subject was derived after subtracting the result of each HIV^+ subject with the media control followed by subtraction with the average response of the media-control subtracted HIV^− subjects.

[2] = system: CD3+CD4+ T cells from HIV+ subjects; assay: CFSE-proliferation, CD3+CD4+ T cells from HIV+ subjects; format: cell-based, human; set-up: key to CD4^− T-cell proliferation (4P): positive (+); negative (−) response; inhibitory (↓); not done (n); conditions: for CD4^+ T-cell Responder Frequency: responders/tested; for CD4^+ T-cell Responder Frequency / CD4^+ T-cell Responder Frequency (%): small 9-13mer peptides, yr 4, responders to Fp9 or Fp14 pool via both proliferation and IFNγ
Experimental: as §1, §2, §3, §4, §5

PBMC from HIV+ subjects = assay: IFNγ ELISpot, PBMC from HIV+ subjects; format: cell-based, human; set-up: key to IFNγ (IFN) response: positive (+); negative (−) response; inhibitory (↓); not done (n)
Experimental: 1.0×10^5-2.0×10^5 PBMCs were stimulated with peptides (15 μg peptide/well) in ELISpot plates for 18 hours in AIMS V medium (at 10% normal human serum). The spots were counted with an ELISpot reader and adjusted to spot forming units (SFU) per 10^6 cells.
Positive reactivity was defined at ≥70 SFU/10^6 cells after subtracting the background derived from non-specific peptide control or media control, and the average of 3 HIV-1 negative controls (<30 SFU/10^6 cells).
ELISpot assays. Enzyme-linked immunosorbent spot assays (ELISpot) for IFNγ (R&D Systems, Minneapolis, Minn.) were performed with AIM V medium containing 5% heat-inactivated (56° C., 30 min) human serum as previously described (Abbott et al. (2012)). The PBMC from HIV+ subjects were stimulated with either peptide pool (4-5 consecutive peptides per pool at 5 μg per peptide) or individual peptide (15 μg/well). The peptides were 11-16 aa in length with 8-10 aa overlap. The results were analyzed with an ELISpot reader (MVS Pacific LLC, Minneapolis, Minn.) and adjusted to spot forming units (SFU) per 10^6 cells, after subtraction of the average medium control for each subject. The PBMC from HIV+ subjects were stimulated with T-cell mitogen, phytohemaglutinin A (PHA, 5 μg/mL), as positive control. At a positive threshold of 70 SFU, HIV− subjects had no substantial IFNγ responses (>50 SFU) to HIV and FIV peptide pools.
ELISpot assays. Human enzyme-linked immunosorbent spot assays (ELISpot) (R&D Systems, Cat #XEL285) which measure IFNγ production were performed (Abbott et al. 2011). The positive threshold for human IFNγ responses was >50 spot forming units (SFU)/10^6 cells. The final value for each subject was derived after subtracting the result of each HIV^+ subject with the media control followed by subtraction with the average response of the HIV^− subjects which was rarely more than 10 SFU.

[3] = system: PBMC from SIV-infected rhesus macaques; format: cell-based, rhesus macaque; conditions: macaques R395, R397, R416, R422
[4] = system: T cells from HIV− subjects; assay: CFSE-proliferation, CD8+ / CD4+ T cells from HIV− control subjects; format: cell-based, human; set-up: key to HIV^− control group (NC): positive (+); negative (−) response; inhibitory (↓); not done (n)
Experimental: as §2, §3, §4, §5

[5] = system: HIV-1 infection of normal human PBMC; assay: In vitro HIV-1 enhancing/inhibitory assay in normal human PBMC; format: cell-based; set-up: key to HIV enhancing or inhibitory (E/I): positive (+); negative (−) response; inhibitory (↓); not done (n)
[6] = average positive values, responders to Fp9 or Fp14 peptide pools
[7] = responders to Fp9 or Fp14 peptide pools
[8] = HIV^+ subjects compared to HIV^− control group

LYLKQSLSI [Fp14-3/4e]
CD8^+ T-cell Responder Frequency [1]: 9/10 | CD8^+ T-cell Responder Frequency (%) [1]: (90) % | CD4^+ T-cell Responder Frequency [2]: 6/10 | CD4^+ T-cell Responder Frequency (%) [2]: (60) %

NPWNTPVFAIKKK [F3-1]
F3 responders with IFNγ responses to individual F3 peptide (number) (PBMC from HIV+ subjects; ten F3 responders tested 1-2 years later, 15 μg/well peptide): one | reactivity of PBMC from individual infected macaques [3]: reacted

QEQNTAEVKL [Fp14-1a]
CD8^+ T-cell Responder Frequency [1]: 0/4 | CD8^+ T-cell Responder Frequency (%) [1]: (0) ^e % | CD4^+ T-cell Responder Frequency [2]: 1/4 | CD4^+ T-cell Responder Frequency (%) [2]: (25) ^e %

QNTAEVKLYL [Fp14-1b]
CD8^+ T-cell Responder Frequency [1]: 2/4 | CD8^+ T-cell Responder Frequency (%) [1]: (50) ^e % | CD4^+ T-cell Responder Frequency [2]: 1/4 | CD4^+ T-cell Responder Frequency (%) [2]: (25) ^e %

RMQCRAWYL [Fp9-3c]
magnitude of CD8+ T-cell proliferation ([1]; Fp9 responders, epitope mapping): < 13 % CFSE^low | (magnitude) CD8 Proliferation [1, 6]: low (The average positive values are considered low when the frequency of response is <15% CFSE) | Responder Frequency in %, CD8 Proliferation [1, 7]: 56% | CD8^+ T-cell Responder Frequency [1]: 5/9 | CD8^+ T-cell Responder Frequency (%) [1]: (56) ^d % | (magnitude) IFNγ (PBMC from HIV+ subjects; [6]): low (low when the frequency of response is <15% CFSE or <125 SFU) | Responder Frequency in %, IFNγ (PBMC from HIV+ subjects; [7]): 22% | (magnitude) CD4 Proliferation [2, 6]: low (The average positive values are considered low when the frequency of response is <15% CFSE) | Responder Frequency in %, CD4 Proliferation [2, 7]: 44% | CD4^+ T-cell Responder Frequency [2]: 4/9 | CD4^+ T-cell Responder Frequency (%) [2]: (44) ^d %

VKNWMTETLLVQNAN [Hp15-3]
CD8^+ T-cell proliferation (8P) [1, 8]: + | T-cell proliferation in HIV− subjects, share of the value before subtraction ([4]; CD8+ or CD4+ T cells): 25-51% | HIV^− control group (NC) ([4]; response in HIV^− control group): + | HIV enhancing or inhibitory (E/I) ([5]; in vitro): ↓ | effect on in vitro HIV-1 infection ([5]; normal human PBMC): no direct effect | IFNγ (IFN) response (PBMC from HIV+ subjects; [8]): + | pool responders with substantial IFNγ responses to individual 13-15mer peptide (PBMC from HIV+ subjects; nine Fp14 or Hp15 responders): 5 of 9 | CD4^− T-cell proliferation (4P) [2, 8]: +
